PubChem BioAssay AID1259425 | University of Nebraska Medical Center – 2018
In all, the deposit lists about 14,000 reagents; below is an unselected part. Reagents against one gene are numbered here. Not given: the time to read-out.

- Purpose: 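Compare each knockdown with KSR1 silencing using changes in marker transcripts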 (primary screen)
- Cells: HCT116 human colon cancer cells
- Knock-down reagent: siRNA pool against human genes, 50 nM siRNA
- Detection: 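mRNA of six signature genes measured together by branched-DNA assay after 50 nM siRNA pool, blank removed, divided by geometric mean of two housekeeping genes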
- Scale: BNIP3L mRNA: higher = more BNIP3L transcript after knockdown; NDRG1 mRNA: higher = more NDRG1 transcript after knockdown; BNIP3 mRNA: higher = more BNIP3 transcript after knockdown; ALDOC mRNA: higher = more ALDOC transcript after knockdown; ACSL5 mRNA: higher = more ACSL5 transcript after knockdown

| Target gene | reagent no. | BNIP3L mRNA, set 1 | NDRG1 mRNA, set 1 | BNIP3 mRNA, set 1 | ALDOC mRNA, set 1 | ACSL5 mRNA, set 1 |
| --- | --- | --- | --- | --- | --- | --- |
| HEG1 (heart development protein with EGF like domains 1) | 1 | 0.403 | 0.622 | 0.226 | 0.0274 | 0.229 |
| CRLS1 (cardiolipin synthase 1) | 1 | 0.154 | 0.212 | 0.333 | 0.0501 | 0.0692 |
| ADSS2 (adenylosuccinate synthase 2) | 1 | 0.112 | 0.192 | 0.256 | 0.0284 | 0.247 |
| TNC (tenascin C) | 1 | 0.125 | 0.0752 | 0.297 | 0.0196 | 0.156 |
| ACTR10 (actin related protein 10) | 1 | 0.157 | 0.121 | 0.227 | 0.044 | 0.192 |
| INSIG1 (insulin induced gene 1) | 1 | 0.0455 | 0.147 | 0.376 | 0.0275 | 0.208 |
| REEP5 (receptor accessory protein 5) | 1 | 0.156 | 0.172 | 0.209 | 0.0351 | 0.16 |
| DIDO1 (death inducer-obliterator 1) | 1 | 0.136 | 0.335 | 0.41 | 0.0138 | 0.485 |
| DIDO1 (death inducer-obliterator 1) | 2 | 0.218 | 0.653 | 0.623 | 0.0297 | 0.291 |
| RPL13A (ribosomal protein L13a) | 1 | 0.0907 | 0.24 | 0.258 | 0.0221 | 0.123 |
| SLC1A2 | 1 | 0.118 | 0.178 | 0.249 | 0.022 | 0.165 |
| EIF4EBP2 | 1 | 0.116 | 0.0852 | 0.198 | 0.00418 | 0.23 |
| MS4A5 (membrane spanning 4-domains A5) | 1 | 0.169 | 0.201 | 0.2 | 0.0159 | 0.304 |
| KCNK9 (potassium two pore domain channel subfamily K member 9) | 1 | 0.0838 | 0.287 | 0.295 | 0.0147 | 0.15 |
| PLCH2 (phospholipase C eta 2) | 1 | 0.0469 | 0.156 | 0.29 | 0.0144 | 0.0588 |
| FCGR2B (Fc gamma receptor IIb) | 1 | 0.0448 | 0.0533 | 0.231 | 0.00853 | 0.0886 |
| MAGOHB (mago homolog B, exon junction complex subunit) | 1 | 0.122 | 0.154 | 0.31 | 0.0286 | 0.186 |
| BCLAF1 (BCL2 associated transcription factor 1) | 1 | 0.0343 | 0.0805 | 0.154 | 0.00442 | 0.085 |
| FBXW4P1 (F-box and WD repeat domain containing 4 pseudogene 1) | 1 | 0.095 | 0.159 | 0.299 | 0.0416 | 0.163 |
| UNC79 (unc-79 subunit of NALCN channel complex) | 1 | 0.118 | 0.939 | 0.3 | 0.0477 | 0.508 |

Laid out differently: results already given.
DIDO1 (death inducer-obliterator 1) #1
- BNIP3L mRNA, set 1: 0.136
- NDRG1 mRNA, set 1: 0.335
- BNIP3 mRNA, set 1: 0.41
- ALDOC mRNA, set 1: 0.0138
- ACSL5 mRNA, set 1: 0.485

DIDO1 (death inducer-obliterator 1) #2
- BNIP3L mRNA, set 1: 0.218
- NDRG1 mRNA, set 1: 0.653
- BNIP3 mRNA, set 1: 0.623
- ALDOC mRNA, set 1: 0.0297
- ACSL5 mRNA, set 1: 0.291

RPL13A (ribosomal protein L13a)
- BNIP3L mRNA, set 1: 0.0907
- NDRG1 mRNA, set 1: 0.24
- BNIP3 mRNA, set 1: 0.258
- ALDOC mRNA, set 1: 0.0221
- ACSL5 mRNA, set 1: 0.123

SLC1A2
- BNIP3L mRNA, set 1: 0.118
- NDRG1 mRNA, set 1: 0.178
- BNIP3 mRNA, set 1: 0.249
- ALDOC mRNA, set 1: 0.022
- ACSL5 mRNA, set 1: 0.165

EIF4EBP2
- BNIP3L mRNA, set 1: 0.116
- NDRG1 mRNA, set 1: 0.0852
- BNIP3 mRNA, set 1: 0.198
- ALDOC mRNA, set 1: 0.00418
- ACSL5 mRNA, set 1: 0.23

MS4A5 (membrane spanning 4-domains A5)
- BNIP3L mRNA, set 1: 0.169
- NDRG1 mRNA, set 1: 0.201
- BNIP3 mRNA, set 1: 0.2
- ALDOC mRNA, set 1: 0.0159
- ACSL5 mRNA, set 1: 0.304

KCNK9 (potassium two pore domain channel subfamily K member 9)
- BNIP3L mRNA, set 1: 0.0838
- NDRG1 mRNA, set 1: 0.287
- BNIP3 mRNA, set 1: 0.295
- ALDOC mRNA, set 1: 0.0147
- ACSL5 mRNA, set 1: 0.15

The results go on.
| Target gene | reagent no. | BNIP3L mRNA, set 1 | NDRG1 mRNA, set 1 | BNIP3 mRNA, set 1 | ALDOC mRNA, set 1 | ACSL5 mRNA, set 1 |
| --- | --- | --- | --- | --- | --- | --- |
| FIBP (FGF1 intracellular binding protein) | 1 | 0.0824 | 0.0588 | 0.182 | 0.0107 | 0.0911 |
| CARD9 (caspase recruitment domain family member 9) | 1 | 0.117 | 0.794 | 0.463 | 0.0357 | 0.219 |
| NR2F2 (nuclear receptor subfamily 2 group F member 2) | 1 | 0.111 | 0.254 | 0.241 | 0.0761 | 0.129 |
| ARL8B (ARF like GTPase 8B) | 1 | 0.11 | 0.102 | 0.191 | 0.0245 | 0.126 |
| TLR7 (toll like receptor 7) | 1 | 0.0366 | 0.0825 | 0.255 | 0.00585 | 0.138 |
| SRCAP (Snf2 related CREBBP activator protein) | 1 | 0.12 | 0.602 | 0.235 | 0.041 | 0.0941 |
| KRT12 (keratin 12) | 1 | 0.0848 | 0.0826 | 0.3 | 0.0266 | 0.0646 |
| FAM131B (family with sequence similarity 131 member B) | 1 | 0.136 | 0.215 | 0.334 | 0.0429 | 0.228 |
| MARK4 (microtubule affinity regulating kinase 4) | 1 | 0.0811 | 0.0937 | 0.267 | 0.00878 | 0.14 |
| YIPF1 (Yip1 domain family member 1) | 1 | 0.0814 | 0.077 | 0.228 | 0.0203 | 0.0521 |
| DCAF4 (DDB1 and CUL4 associated factor 4) | 1 | 0.212 | 0.211 | 0.367 | 0.0391 | 0.238 |
| H4C1 (H4 clustered histone 1) | 1 | 0.0844 | 0.196 | 0.238 | 0.0211 | 0.0697 |
| HAUS6 (HAUS augmin like complex subunit 6) | 1 | 0.165 | 0.285 | 0.342 | 0.0208 | 0.167 |
| NCF4 (neutrophil cytosolic factor 4) | 1 | 0.248 | 0.146 | 0.453 | 0.111 | 0.154 |
| RPL5 (ribosomal protein L5) | 1 | 0.0948 | 0.228 | 0.178 | 0.0607 | 0.0953 |
| SDC4 (syndecan 4) | 1 | 0.0982 | 0.32 | 0.271 | 0.0173 | 0.31 |
| LATS2 (large tumor suppressor kinase 2) | 1 | 0.0659 | 0.0765 | 0.223 | 0.00785 | 0.191 |
| FRZB (frizzled related protein) | 1 | 0.0711 | 0.055 | 0.237 | 0.0221 | 0.135 |
| NPHP4 (nephrocystin 4) | 1 | 0.112 | 0.246 | 0.287 | 0.0294 | 0.149 |
| EIF4A2 (eukaryotic translation initiation factor 4A2) | 1 | 0.0891 | 0.322 | 0.321 | 0.0328 | 0.232 |
| EPS8L2 (EPS8 signaling adaptor L2) | 1 | 0.264 | 0.896 | 0.439 | 0.0275 | 0.202 |
| MYLK (myosin light chain kinase) | 1 | 0.128 | 0.172 | 0.456 | 0.00431 | 0.213 |
| AGK (acylglycerol kinase) | 1 | 0.0758 | 0.0412 | 0.319 | 0.00635 | 0.287 |
| EZH2 (enhancer of zeste 2 polycomb repressive complex 2 subunit) | 1 | 0.0811 | 0.347 | 0.403 | 0.0188 | 0.307 |
| GNAZ (G protein subunit alpha z) | 1 | 0.106 | 0.0869 | 0.382 | 0.0285 | 0.085 |
| EPB41L1 (erythrocyte membrane protein band 4.1 like 1) | 1 | 0.104 | 0.217 | 0.353 | 0.0117 | 0.309 |
| ABHD1 (abhydrolase domain containing 1) | 1 | 0.172 | 0.103 | 0.194 | 0.0211 | 0.159 |
| MLLT6 (MLLT6, PHD finger containing) | 1 | 0.169 | 0.0563 | 0.333 | 0.0134 | 0.189 |
| MEN1 (menin 1) | 1 | 0.0934 | 0.114 | 0.255 | 0.011 | 0.209 |
| RAB2A (RAB2A, member RAS oncogene family) | 1 | 0.133 | 0.25 | 0.363 | 0.0473 | 0.145 |
